Tested on: elastase
Assay: Release of elastase inhibitory activity from polymerized bone cement in water

Elafin: Human anti-protease polypeptide of 57 amino acids, about 6 kDa (SEQ ID NO: 1); reversible inhibitor of neutrophil elastase and proteinase 3 (AQEPVKGPVSTKPGSCPIILIRCAMLNPPNRCLKDTDCPGIKKCCEGSCGMACFVPQ; listed as Homo sapiens)
share of the added amount released (bone cement in water, within the first three days): about 15%
release of active inhibitor from polymerized cement samples (bone cement pieces incubated in water): Active olefin was released

Source: patent US20140287985A1, “NOVEL USES OF ELAFIN” (Proteo Biotech AG, priority 2010, published 2014)
